According to paper doi:10.1101/2022.05.26.493655:
Read-outs that look alike come from different tables or passages of the source. No constants are given. Whether binding was seen depends on the method and setting. Binding seen in cells or lysates may run through a third protein. Some binding calls cover weakened binding; strength is not graded here. For some of these results: Tags and fused reporters may be left off the sequences shown.

Sequences of proteins named here, by UniProt entry; tags and fusion partners are left off.
UniProt Q96B26: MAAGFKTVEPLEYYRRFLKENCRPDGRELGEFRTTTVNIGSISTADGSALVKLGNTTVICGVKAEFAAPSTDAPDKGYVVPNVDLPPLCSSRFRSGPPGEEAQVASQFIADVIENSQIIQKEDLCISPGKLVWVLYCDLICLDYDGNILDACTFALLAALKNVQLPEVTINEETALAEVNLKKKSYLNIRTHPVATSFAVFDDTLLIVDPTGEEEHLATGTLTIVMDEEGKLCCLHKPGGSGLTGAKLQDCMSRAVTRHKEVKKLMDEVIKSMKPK
UniProt Q13601: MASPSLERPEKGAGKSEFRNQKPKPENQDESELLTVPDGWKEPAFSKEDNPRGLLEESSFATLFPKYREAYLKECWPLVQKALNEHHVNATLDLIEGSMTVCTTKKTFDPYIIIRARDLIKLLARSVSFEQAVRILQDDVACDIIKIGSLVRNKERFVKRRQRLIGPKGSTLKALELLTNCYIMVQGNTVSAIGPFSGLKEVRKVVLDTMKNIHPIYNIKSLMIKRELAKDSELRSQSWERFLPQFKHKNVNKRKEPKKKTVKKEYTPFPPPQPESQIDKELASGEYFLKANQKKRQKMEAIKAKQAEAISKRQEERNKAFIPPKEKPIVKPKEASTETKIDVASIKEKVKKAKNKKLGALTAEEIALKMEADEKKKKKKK
UniProt Q15024: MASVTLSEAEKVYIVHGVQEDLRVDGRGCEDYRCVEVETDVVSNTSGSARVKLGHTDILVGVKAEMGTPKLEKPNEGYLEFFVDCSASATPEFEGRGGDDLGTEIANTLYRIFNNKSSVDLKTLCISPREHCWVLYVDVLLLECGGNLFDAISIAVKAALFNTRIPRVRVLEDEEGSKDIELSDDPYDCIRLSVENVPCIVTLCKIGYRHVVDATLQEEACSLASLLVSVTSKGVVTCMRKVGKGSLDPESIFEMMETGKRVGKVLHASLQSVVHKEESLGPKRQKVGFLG

Columns and labels:
[1] = target: EXOSC8 (human (endogenous in HCT116 and DLD1)) (UniProt Q96B26); assay: co-IP
[2] = target: T1, ZNF692 stably overexpressed in HCT116 cells (human) (UniProt Q9BU19); assay: co-IP
T1 sequence: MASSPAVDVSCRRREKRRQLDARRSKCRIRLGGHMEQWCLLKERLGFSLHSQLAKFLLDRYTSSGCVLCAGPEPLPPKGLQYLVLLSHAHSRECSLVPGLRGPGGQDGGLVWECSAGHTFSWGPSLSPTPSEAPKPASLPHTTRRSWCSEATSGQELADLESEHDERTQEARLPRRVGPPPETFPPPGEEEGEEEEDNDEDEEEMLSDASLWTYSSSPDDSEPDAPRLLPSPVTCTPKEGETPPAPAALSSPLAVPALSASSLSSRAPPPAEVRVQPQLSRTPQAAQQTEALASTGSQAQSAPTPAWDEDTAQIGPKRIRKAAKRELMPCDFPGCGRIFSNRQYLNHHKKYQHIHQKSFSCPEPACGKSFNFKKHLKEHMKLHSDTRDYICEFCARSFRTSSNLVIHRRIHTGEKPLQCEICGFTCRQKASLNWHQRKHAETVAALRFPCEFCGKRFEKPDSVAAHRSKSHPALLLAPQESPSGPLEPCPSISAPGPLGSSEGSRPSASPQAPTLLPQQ

[3] = target: T2, NOP2 (human (endogenous in HCT116 and DLD1)) (UniProt P46087); assay: co-IP
T2 sequence: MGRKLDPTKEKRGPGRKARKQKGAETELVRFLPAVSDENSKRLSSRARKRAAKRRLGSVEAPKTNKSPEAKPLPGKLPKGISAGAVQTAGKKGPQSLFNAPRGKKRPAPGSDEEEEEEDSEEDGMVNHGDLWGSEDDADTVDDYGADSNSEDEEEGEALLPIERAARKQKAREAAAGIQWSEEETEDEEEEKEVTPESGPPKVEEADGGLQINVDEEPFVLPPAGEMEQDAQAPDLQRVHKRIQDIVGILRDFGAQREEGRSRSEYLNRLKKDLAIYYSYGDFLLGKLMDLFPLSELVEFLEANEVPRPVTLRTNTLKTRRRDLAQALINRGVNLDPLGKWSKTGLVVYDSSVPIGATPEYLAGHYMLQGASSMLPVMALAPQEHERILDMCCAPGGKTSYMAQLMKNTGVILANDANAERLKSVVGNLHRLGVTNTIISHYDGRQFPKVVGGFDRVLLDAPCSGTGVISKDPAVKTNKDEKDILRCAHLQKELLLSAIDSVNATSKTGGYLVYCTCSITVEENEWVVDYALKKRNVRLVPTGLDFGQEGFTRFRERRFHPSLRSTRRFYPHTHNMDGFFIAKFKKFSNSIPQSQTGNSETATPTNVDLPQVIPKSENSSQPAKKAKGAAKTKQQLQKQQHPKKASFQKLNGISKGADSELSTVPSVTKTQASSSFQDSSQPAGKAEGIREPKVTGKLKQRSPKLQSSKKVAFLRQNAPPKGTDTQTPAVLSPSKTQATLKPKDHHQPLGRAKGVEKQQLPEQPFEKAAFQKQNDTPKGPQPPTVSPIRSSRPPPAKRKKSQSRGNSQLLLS

[4] = target: KRR1 (human (endogenous in HCT116 and DLD1)) (UniProt Q13601); assay: co-IP
[5] = target: T3, purified recombinant GFP-ZNF692 WT (human) (UniProt Q9BU19); assay: pull-down
T3 sequence: T1 sequence

[6] = target: T1, ZNF692 stably overexpressed in HCT116 cells (human); assay: co-IP; remark: listed apart in the source

Measured: binding

EXOSC7 (from UniProt Q15024 1-291)
binds: [1] | [2] | [3] | [4]

KRR1 (from UniProt Q13601 1-381)
binds: [2] | [5] | [6]

B1: NOP2 (protein, UniProt P46087 1-812)
chain: T2 sequence
binds: [2] | [4] | [5]
